{"source": "patent US6187800A", "about": "“Method for the prevention and treatment of mastitis” (Novartis Animal Health U.S., Inc., priority 1997, dated 2001)", "system": "Bacillus stearothermophilus", "assay": "Delvotest P in milk from treated bovine mammary gland quarters", "assay_type": "cell-based", "settings": "for no of milkings after last treatment that Delvotest P pos or +/-: 3 at 12 hrs, 4 quarters"}
{"substance": "micrococcin P1", "values": [{"measurement": "no of milkings after last treatment that Delvotest P pos or +/-", "setting": "0.5 mg", "result": 0}, {"measurement": "no of milkings after last treatment that Delvotest P pos or +/-", "setting": "1 mg", "result": 1}, {"measurement": "no of milkings after last treatment that Delvotest P pos or +/-", "setting": "2 mg", "result": 1}, {"measurement": "no of milkings after last treatment that Delvotest P pos or +/-", "setting": "4 mg", "result": 2}, {"measurement": "interference with Delvotest P", "setting": "dose of 0,5 mg", "result": "does not interfere with Delvotest P"}]}
